In patent EP0453119A1, “Modified beta adrenergic receptor” (MERCK & CO. INC., priority 1990, dated 1991):
Some entries share one result that the patent states for a list of compounds.

Chains of the proteins cited; added tags and fusions are not shown.
UniProt P04274, whole entry D113S: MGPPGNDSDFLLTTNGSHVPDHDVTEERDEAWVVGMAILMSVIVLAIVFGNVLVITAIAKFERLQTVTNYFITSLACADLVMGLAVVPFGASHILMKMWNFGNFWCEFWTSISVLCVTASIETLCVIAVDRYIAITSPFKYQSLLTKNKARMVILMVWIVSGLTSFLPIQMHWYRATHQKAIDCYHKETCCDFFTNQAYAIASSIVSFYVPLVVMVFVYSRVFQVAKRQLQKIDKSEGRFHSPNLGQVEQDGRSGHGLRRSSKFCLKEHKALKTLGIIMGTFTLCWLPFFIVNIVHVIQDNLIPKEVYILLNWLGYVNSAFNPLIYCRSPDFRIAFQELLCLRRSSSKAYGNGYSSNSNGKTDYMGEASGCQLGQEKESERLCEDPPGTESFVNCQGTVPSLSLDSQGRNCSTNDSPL

molecular target: T1, [Ser^113]βAR (Mesocricetus auratus, UniProt P04274, D113S); experiment: Adenylyl cyclase stimulation in membranes of mouse L cells expressing the mutant receptor; format: biochemical, hamster; details: result in words, acids compared with the corresponding esters
T1 construct: pSVHAC contains the full length hamster ß₂AR cDNA cloned into the EcoRI site of pSVL; expressed in transfected cells; host or cells: mouse L cells (clonal lines, membranes)
Protocol: Mutagenesis of the ßAR gene. […] Other standard cloning techniques were performed as described by the former Manual and would be easily reproduced by anyone trained in molecular biology. An oligonucleotide 19 nucleotides in length complementary to the phage DNA surrounding the codon for Asp¹¹³ were synthesized using an Applied Biosystems Model 3A DNA synthesizer. The oligonucleotide contained mismatched positions in order to convert the codon for Asp¹¹³ (GAT) to Ser ([…]). The oligonucleotide was annealed to the phage DNA for priming and extended using Klenow DNA polymerase and T4 DNA ligase. […] The ßAR gene in this vector utilizes the SV40 early promoter, the modified splice signal, and the ßAR polyadenylation site for expression. The ligated mixture was transformed into E. coli strain DH5 (Bethesda Research Laboratories) and ampicillin resistant colonies were screened by filter hybridization using the oligonucleotide corresponding to the mutation as the hybridization probe. Plasmids were isolated from several hybridization positive colonies and mapped to insure the proper DNA insert was contained in the clone. The mutations were resolved by retransformation of the plasmid DNA into E. coli. Mutant plasmid containing colonies were again isolated by filter hybridization as above. Plasmid DNA was isolated from overnight cultures of cells by alkaline lysis and twice banding in CsCl-ethidium bromide equilibrium density gradients. […] The purity of the plasmid preparation was tested by retransformation of the DNA into E. coli followed by colony hybridization. […] Plasmid DNA was isolated as above and confirmed by restriction mapping.
Expression in mammalian cells. For the establishment of clonal cell lines expressing mutant receptors, the plasmid DNAs were transfected into mouse L cells by the CaPO₄ procedure. […] The precipitate was added to the media covering subconfluent monolayers of mouse L cells in 100 mm petri dishes and incubated at 37°C for 4 hrs. The media was removed and the cells were washed once with Dulbecco's modified minimal essential medium (DMEM). […] DMEM containing 10% fetal bovine serum was then added to the monolayers and the cells were incubated at 37°C for 12-18 hrs. […]
The reaction was allowed to proceed for 30 min at 30°C before it was quenched at 4°C with an excess of unlabeled ATP. The ³²P-cAMP produced was determined by Dowex and alumina chromatography, as described by Salomon et al., supra.
Data Analysis. […] The Michaelis-Menton equation was used: V=Vmax[A]/Kact+[A], where V is the level of cyclase stimulation (in pmol ³²P-cAMP/mg protein/min) measured at a given agonist concentration [A], and Vmax is the calculated maximal stimulation at infinite agonist concentration.

SMILES	activation of [Ser¹¹³]ßAR
CC(=O)c1ccc(O)c(O)c1 [Compound 15]	enhances activity
CC(C)CC(=O)c1ccc(O)c(O)c1 [Compound 18]	enhances activity
CCCC(=O)c1ccc(O)c(O)c1 [Compound 17]	enhances activity
O=Cc1ccc(O)c(O)c1 [Compound 14]	enhances activity
